Measurements reported in PubChem BioAssay AID1508597 (Cure First, 2020).
Shown is a random part of the about 2,100 reagents, in one setting of the screen. 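Calls flag viability under 80% in either arm, not effects specific to rucaparib; the reference for percent is not stated.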 A number with no mark means an inactive call. A reagent listed more than once was tested more than once; the source does not tell the runs apart. Not given: the 100% reference.

Assay: 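Knock-downs altering ovarian cancer cell survival with or without PARP inhibitor rucaparib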 (primary screen)
Cells: human ovarian carcinoma lines grown from tumours: OCI-P5x (papillary serous) and OCI-C5x (clear cell)
Reagents: siRNA pool against human genes, 1.25 pmol siRNA per well
Timing: 72 h or 96 h, depending on the cell culture
Treatment: rucaparib 20 µM (about IC30) or vehicle, present until read-out
Rucaparib or vehicle: Rucaparib
Cell line: OCI-C5x (clear cell)
Detection: 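ATP luminescence measured at 72 or 96 h according to the culture, then normalised and expressed as percent viability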
Scale: viability, normalised: higher = more viable cells remaining
Call rule: 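Active when normalised viability falls below 80 percent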
Calls: active = viability under 80%; inactive = viability 80% or more

gene symbol	PubChem SID	technical replicate	viability, normalised (%)
NSD3 (GeneID 54904)	SID405526627	1	20.6 (active)
NSD3 (GeneID 54904)	SID405526627	2	14.2 (active)
NSD3 (GeneID 54904)	SID405526627	3	15.9 (active)
CECR2 (GeneID 27443)	SID405526480	1	45.7 (active)
CECR2 (GeneID 27443)	SID405526480	1	60 (active)
CECR2 (GeneID 27443)	SID405526480	2	47.6 (active)
CECR2 (GeneID 27443)	SID405526480	2	49.7 (active)
CECR2 (GeneID 27443)	SID405526480	3	53.2 (active)
CECR2 (GeneID 27443)	SID405526480	3	56.3 (active)
NECAB3 (GeneID 63941)	SID405526459	1	66.7 (active)
NECAB3 (GeneID 63941)	SID405526459	2	76.1 (active)
NECAB3 (GeneID 63941)	SID405526459	3	74.9 (active)
MED24 (GeneID 9862)	SID405526999	1	61 (active)
MED24 (GeneID 9862)	SID405526999	2	44.6 (active)
MED24 (GeneID 9862)	SID405526999	3	49.9 (active)
RPS3A (GeneID 6189)	SID405528439	1	53.2 (active)
RPS3A (GeneID 6189)	SID405528439	2	39.9 (active)
RPS3A (GeneID 6189)	SID405528439	3	49.8 (active)
TBL1X (GeneID 6907)	SID405526534	1	52.9 (active)
TBL1X (GeneID 6907)	SID405526534	2	61.3 (active)
TBL1X (GeneID 6907)	SID405526534	3	39.7 (active)
TFRC (GeneID 7037)	SID405526466	1	61.9 (active)
TFRC (GeneID 7037)	SID405526466	2	63.9 (active)
TFRC (GeneID 7037)	SID405526466	3	74.3 (active)
PRKXP1 (GeneID 441733)	SID405527767	1	47.1 (active)
PRKXP1 (GeneID 441733)	SID405527767	2	64.1 (active)
PRKXP1 (GeneID 441733)	SID405527767	3	61.8 (active)

Continued, starting with the last 5 of the part before.
gene symbol	PubChem SID	technical replicate	viability, normalised (%)
TFRC (GeneID 7037)	SID405526466	2	63.9 (active)
TFRC (GeneID 7037)	SID405526466	3	74.3 (active)
PRKXP1 (GeneID 441733)	SID405527767	1	47.1 (active)
PRKXP1 (GeneID 441733)	SID405527767	2	64.1 (active)
PRKXP1 (GeneID 441733)	SID405527767	3	61.8 (active)
COQ8B (GeneID 79934)	SID405527671	1	46.5 (active)
COQ8B (GeneID 79934)	SID405527671	2	53 (active)
COQ8B (GeneID 79934)	SID405527671	3	47.9 (active)
SREBF1 (GeneID 6720)	SID405526498	1	74.5 (active)
SREBF1 (GeneID 6720)	SID405526498	2	64.6 (active)
SREBF1 (GeneID 6720)	SID405526498	3	45 (active)
CYP7A1 (GeneID 1581)	SID405528161	1	34.6 (active)
CYP7A1 (GeneID 1581)	SID405528161	2	20.4 (active)
CYP7A1 (GeneID 1581)	SID405528161	3	26.9 (active)
NRBP2 (GeneID 340371)	SID405527802	1	64.1 (active)
NRBP2 (GeneID 340371)	SID405527802	2	59.8 (active)
NRBP2 (GeneID 340371)	SID405527802	3	59.1 (active)
CDK16 (GeneID 5127)	SID405528597	1	63.4 (active)
CDK16 (GeneID 5127)	SID405528597	2	68.5 (active)
CDK16 (GeneID 5127)	SID405528597	3	68.9 (active)
SLX4 (GeneID 84464)	SID405528286	1	35.1 (active)
SLX4 (GeneID 84464)	SID405528286	2	40.2 (active)
SLX4 (GeneID 84464)	SID405528286	3	28.9 (active)
SMC1A (GeneID 8243)	SID405527338	1	32.9 (active)
SMC1A (GeneID 8243)	SID405527338	1	49.2 (active)
SMC1A (GeneID 8243)	SID405527338	2	30.8 (active)
SMC1A (GeneID 8243)	SID405527338	2	80.6
SMC1A (GeneID 8243)	SID405527338	3	94.4
SMC1A (GeneID 8243)	SID405527338	3	28 (active)
MAST4 (GeneID 375449)	SID405528544	1	56.9 (active)
MAST4 (GeneID 375449)	SID405528544	2	58.5 (active)
MAST4 (GeneID 375449)	SID405528544	3	71.6 (active)
SOX6 (GeneID 55553)	SID405526486	1	59 (active)
SOX6 (GeneID 55553)	SID405526486	2	41.6 (active)
SOX6 (GeneID 55553)	SID405526486	3	50 (active)
